# Laboratory results published in PubChem BioAssay AID2685 (National Center for Advancing Translational Sciences (NCATS), 2010).
# Hit rate of the full screen: of about 320,000 compounds, about 2,100 (0.66%) were called active. Inconclusive results, whose numbers are uncertain, are shown with a selection of clear calls. The call rests on the fitted dose curve; in most records, active means well fitted inhibition curve with a large enough effect in the signal ratio, with a control signal flat (not every such curve was filed as active); inconclusive means small, poorly fitted or top-dose-only effect, or effect the other way, or a change in a side signal; inactive means flat fitted curve, though single readings scatter; the % refers to the signal ratio. Where the call is inconclusive, the potency comes from a doubtful curve fit.
# Assay: qHTS Assay for Lipid Storage Modulators in Drosophila S3 Cells
# Conditions: BODIPY lipid droplet fluorescence, 18-24 h, cells fed with added oleic acid; lipid storage change, negative = inhibition: at 46.1 µM (top of the series) unless noted
# Method in brief: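 Drosophila S3 cells got compounds at several concentrations plus oleic acid (400 uM solution). Laser-scanning cytometry with 488 nm excitation read lipid droplets at 500-530 nm and cells at 575-640 nm. Percent activity was relative to 20 uM Triacsin C.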
# On the % scale 0 is the no-effect control and ±100 the full control effect; potency means the concentration at half of the fitted maximal effect.
SMILES,"lipid storage change, negative = inhibition",Potency
Cc1ccc(C(=O)CSc2ccc(-c3cccnc3)nn2)cc1,inconclusive: 8.69%,–
Nc1nc(Br)c2ccccc2c1-c1ccc(F)cc1,inconclusive: 17.2%,–
Cc1cc(CNC(=O)Cn2nc(C)c([N+](=O)[O-])c2C)c2ccccc2n1,inconclusive: -4.36%,–
O=C1CC(N(CCc2ccccc2)C(=S)Nc2ccccc2)C(=O)N1c1ccc(Br)cc1 (centres undefined),–,"inconclusive: 16.4 µM [falling, single point]"
CC(C)CCNC(=O)CN(CC1CCCO1)C(=O)CCC(=O)Nc1ccccn1 (centres undefined),inconclusive: -8.95% [at 9.22 µM],–
CCOC(=O)C(=N/O)/C(C)=N/NC(=O)C(=O)Nc1ccc(Cl)cc1,–,"inconclusive: 29.1 µM [falling, single point]"
Cc1ccc(NCc2ccc(C)s2)cc1,inconclusive: -13.2%,–
COc1ccc(NC(=O)COC(=O)CCOc2ccccc2C)cc1Cl,inconclusive: 16.9%,–
Cc1ccc(-n2ccnc(SCC(=O)NC3CCCCC3)c2=O)cc1F,inconclusive,–
CC/C(=N\NC(=O)Nc1nonc1N)c1ccc(OC)c(OC)c1,–,"inconclusive: 6.51 µM [activator, single point]"
Cc1ccc(S(=O)(=O)c2cc3c(=O)n4ccccc4nc3n(Cc3ccco3)c2=N)cc1,–,"inconclusive: 0.366 µM [activator, partial curve]"
O=C(CCCn1c(=O)c2sccc2n(Cc2ccc(F)cc2)c1=O)NCc1ccco1,inconclusive: 62.9%,–
Cc1ccc(NC(=O)CC(=O)Nc2ccc(C)cc2)cc1,inconclusive: -20.4%,–
CCn1nc(C)c(C2C(C#N)=C(N)Oc3n[nH]c(C)c32)c1C (centres undefined),inconclusive: -8.66%,–
CNC(=O)N(O)C1N(/N=C/c2ccccc2OC)C(=S)SC1(C)C (centres undefined),inconclusive: -1.93%,–
C/C(=N\Nc1ccc(Cl)c(C(=O)O)c1)c1ccc2c(c1)OCO2,inconclusive: 12.6%,–
O=C(CSc1nnnn1-c1ccccc1)Nc1ncc(Cc2cc(Cl)ccc2Cl)s1,inconclusive: -0.709%,–
O=C(COc1ccc(Cl)cc1Cl)N/N=C1\CCCc2ccccc21,–,"inconclusive: 6.51 µM [falling, single point]"
O=C(Cn1c(=O)oc2cc(S(=O)(=O)N3CCCC3)ccc21)NC1CCCc2ccccc21 (centres undefined),inconclusive: 15.1%,–
COc1ccc(OC)c(NC(=O)CSc2nnc(Cn3c(=O)sc4ccccc43)n2C)c1,–,"inconclusive: 20.6 µM [cytotoxic, single point]"
COc1ccccc1N1CCN(Cc2c[nH]c3ccccc23)CC1,inconclusive: 5.97%,–
CCn1cc(CN2CCCC(C(=O)Nc3ccc(-c4nc5ccccc5[nH]4)cc3)C2)c(C)n1 (centres undefined),inconclusive: 61.8%,–
CCOC(=O)C1CCCCN1Cc1cccc(OCc2ccccc2)c1 (centres undefined),–,"inconclusive: 29.1 µM [activator, single point]"
O=C(/C=C/c1cccc(Br)c1)c1ccc2c(c1)OCO2,inconclusive: -34.2%,–
CCOc1ccc(S(=O)(=O)NCc2ccccc2Cl)cc1C(N)=O,inconclusive: 4.88%,–

# Reformatted tab-delimited: entries from further up.
SMILES	lipid storage change, negative = inhibition	Potency
Cc1cc(CNC(=O)Cn2nc(C)c([N+](=O)[O-])c2C)c2ccccc2n1	inconclusive: -4.36%	–
CCOC(=O)C1CCCCN1Cc1cccc(OCc2ccccc2)c1 (centres undefined)	–	inconclusive: 29.1 µM [activator, single point]

# (list continues)

SMILES,"lipid storage change, negative = inhibition",Potency
COc1ccc(-c2nnn(CC(=O)N(CCN3CCOCC3)C(C(=O)NC3CCCC3)c3ccco3)n2)cc1 (centres undefined),inconclusive: 9.34%,–
Nc1ncc(Br)cc1S(=O)(=O)Nc1ccccc1F,inactive,–
CC(=O)c1ccc(S(=O)(=O)N2CCC(c3nc4ccccc4[nH]3)CC2)cc1,–,"inconclusive: 0.146 µM [falling, full curve]"
c1ccc2sc(-c3ccc4c(c3)OCO4)nc2c1,–,"inconclusive: 25.9 µM [activator, single point]"
CCOC(=O)c1c(NC(=O)CSc2nnc(-c3c[nH]c4ccccc34)n2CCOC)sc2c1CCCCC2,–,"inconclusive: 1.84 µM [activator, full curve]"
O=C(Nc1cc([N+](=O)[O-])ccc1F)c1ccc2ccccc2c1,–,"inconclusive: 0.58 µM [activator, single point]"
O=C(CSCc1ccccc1F)NCc1ccccc1,inconclusive: 28.6%,–
CC1CCCN(CC(O)COCc2ccccc2)C1 (centres undefined),inconclusive: 6.71%,–
C/C(=N\NS(=O)(=O)c1ccc(C(C)(C)C)cc1)c1ccccc1,inconclusive: -22.4%,–
O=C(NCc1ccc(F)cc1)C1CCN(S(=O)(=O)N2CCOCC2)CC1,inconclusive: 2.24%,–
O=C(c1cccc(S(=O)(=O)N2CCCC2)c1)N1CCCC(C(F)(F)F)C1 (centres undefined),–,"inconclusive: 0.651 µM [rising, partial curve, poor fit]"
COc1cc(C(=O)NNC(=O)c2cccn2C)cc(OC)c1OC,inconclusive: 2.76%,–
CC(C)CNS(=O)(=O)c1ccc(OCC(=O)Nc2ccc3c(c2)OCCO3)cc1,inactive,–
O=C(COc1cccc(F)c1)NNC(=O)Cc1ccc(Br)cc1,–,"inconclusive: 0.164 µM [falling, full curve, poor fit]"
Cc1ccc(C)c(S(=O)(=O)Nc2ccc(S(=O)(=O)Nc3ncccn3)cc2)c1,–,"inconclusive: 29.1 µM [falling, single point]"
CC1CCC(NC(=O)c2cc3ccccc3cc2O)CC1 (centres undefined),inconclusive: -70.4%,–
CCOc1ccc(S(=O)(=O)N2CCCCC2)c(C)c1C,inconclusive: -62.4%,–
CCn1c(=O)cc(OCC(=O)Nc2ccccc2N2CCN(C)CC2)c2ccccc21,inactive,–
CCOP(=O)(OCC)c1nc(-c2ccc(C)cc2)oc1NCc1ccccc1,inconclusive: 51.4%,–
CC12CCC(C(=O)N(CSC(=S)N/N=C\c3ccccc3Cl)C1=O)C2(C)C (centres undefined),–,"inconclusive: 29.1 µM [activator, single point]"
Cc1nnc2n(-c3ccccc3)c(=O)c3c4c(sc3n12)COC(C)(C)C4,–,"inconclusive: 23.1 µM [falling, single point]"
COCC(=O)Nc1ccc(OC)c(Cl)c1,inconclusive: 8.27%,–
O=C1OC(c2ccc(F)cc2)=N/C1=C\c1ccc(Br)o1,–,"inconclusive: 1.84 µM [falling, full curve]"
O=C(Cn1c2c(c(=O)n3ncnc13)CCC2)N/N=C/c1ccc(Cl)cc1,–,"inconclusive: 0.731 µM [falling, single point]"
